Results are given in words; binding and its absence hold for the method and conditions named. Binding seen in cells or lysates may run through a third protein. Binding calls can cover weak binding; strength is not graded here.

This assay deals with GST::CIT-K kinase domain fragment (human). Put plainly: pull-down; GST::CIT-K fragments purified from E. coli on glutathione beads, incubated with in vitro translated [35S]-labelled CPC polypeptides; binding at 150 mM NaCl, washes from 150 mM to 1 M NaCl; autoradiography; only the target purified.

B1: in vitro translated, radiolabelled INCENP N-terminal region (residues 1-261) (domain or fragment, UniProt Q9NQS7 1-261)
chain: MGTTAPGPIHLLELCDQKLMEFLCNMDNKDLVWLEEIQEEAERMFTREFSKEPELMPKTPSQKNRRKKRRISYVQDENRDPIRRRLSRRKSRSSQLSSRRLRSKDSVEKLATVVGENGSVLRRVTRAAAAAAAATMALAAPSSPTPESPTMLTKKPEDNHTQCQLVPVVEIGISERQNAEQHVTQLMSTEPLPRTLSPTPASATAPTSQGIPTSDEESTPKKSKARILESITVSSLMATPQDPKGQGVGTGRSASKLRIAQ
modifications: [35S] methionine-labelled
For B1, the binding entry is reported as “binds weakly”.

B2: in vitro translated, radiolabelled Borealin (protein, UniProt Q53HL2 1-280)
chain: MAPRKGSSRVAKTNSLRRRKLASFLKDFDREVEIRIKQIESDRQNLLKEVDNLYNIEILRLPKALREMNWLDYFALGGNKQALEEAATADLDITEINKLTAEAIQTPLKSAKTRKVIQVDEMIVEEEEEEENERKNLQTARVKRCPPSKKRTQSIQGKGKGKRSSRANTVTPAVGRLEVSMVKPTPGLTPRFDSRVFKTPGLRTPAAGERIYNISGNGSPLADSKEIFLTVPVGGGESLRLLASDLQRHSIAQLDPEALGNIKKLSNRLAQICSSIRTHK
modifications: [35S] methionine-labelled
Consider B2, for which the binding entry is “binds weakly”.

B3: in vitro translated, radiolabelled INCENP central region (residues 262-524) (domain or fragment, UniProt Q9NQS7 262-524)
chain: VSPGPRDSPAFPDSPWRERVLAPILPDNFSTPTGSRTDSQSVRHSPIAPSSPSPQVLAQKYSLVAKQESVVRRASRRLAKKTAEEPAASGRIICHSYLERLLNVEVPQKVGSEQKEPPEEAEPVAAAEPEVPENNGNNSWPHNDTEIANSTPNPKPAASSPETPSAGQQEAKTDQADGPREPPQSARRKRSYKQAVSELDEEQHLEDEELQPPRSKTPSSPCPASKVVRPLRTFLHTVQRNQMLMTPTSAPRSVMKSFIKRNT
modifications: [35S] methionine-labelled
For B3, the binding entry is listed as “no binding”.

Values taken from PMC4821246.
